Experimental data as given in ChEMBL document CHEMBL1287749, “Acetazolamide-based fungal chitinase inhibitors” (Bioorg Med Chem, 2010).

Molecular target: T1, Endochitinase (Saccharomyces cerevisiae S288c, UniProt P29029)
T1 sequence (P29029 whole entry): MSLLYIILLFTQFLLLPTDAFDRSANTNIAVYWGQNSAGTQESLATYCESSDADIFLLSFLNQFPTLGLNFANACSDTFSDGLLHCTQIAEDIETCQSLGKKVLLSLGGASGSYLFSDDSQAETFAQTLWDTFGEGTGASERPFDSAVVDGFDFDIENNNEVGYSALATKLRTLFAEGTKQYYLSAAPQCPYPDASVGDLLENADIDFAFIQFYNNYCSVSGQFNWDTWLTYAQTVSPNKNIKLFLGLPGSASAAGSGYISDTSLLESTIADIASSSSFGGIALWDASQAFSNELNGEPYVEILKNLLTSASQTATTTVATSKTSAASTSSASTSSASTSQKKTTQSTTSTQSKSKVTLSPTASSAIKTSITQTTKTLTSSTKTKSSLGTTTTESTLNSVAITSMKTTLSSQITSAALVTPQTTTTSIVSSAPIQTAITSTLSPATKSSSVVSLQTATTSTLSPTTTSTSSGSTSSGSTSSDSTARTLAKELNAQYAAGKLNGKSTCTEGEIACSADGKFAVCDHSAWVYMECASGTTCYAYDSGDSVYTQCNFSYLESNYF
Experiment: Inhibition of Saccharomyces cerevisiae CTS1

Work on CC(=O)Nc1nnc(S(N)(=O)=O)s1 [ACETAZOLAMIDE] yielded a Ki of 21 µM.
